Laboratory results reported in the supplement of paper PMC10849652.
The list shows a part of the results.

The chains behind the UniProt entries cited, without tags or fusion partners. Where a name states a change or a piece, a line headed by the entry shows the natural chain unless it says otherwise.
UniProt Q9BXV9: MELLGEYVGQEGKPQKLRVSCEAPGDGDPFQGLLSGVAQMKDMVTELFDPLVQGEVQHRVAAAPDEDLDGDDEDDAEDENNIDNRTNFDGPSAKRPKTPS
UniProt Q2TAP0: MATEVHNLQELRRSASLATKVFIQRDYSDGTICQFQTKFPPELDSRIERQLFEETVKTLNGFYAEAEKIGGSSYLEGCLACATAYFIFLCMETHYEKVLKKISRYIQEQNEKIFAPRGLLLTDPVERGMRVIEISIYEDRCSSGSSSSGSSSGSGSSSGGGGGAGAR
UniProt Q8WWB7: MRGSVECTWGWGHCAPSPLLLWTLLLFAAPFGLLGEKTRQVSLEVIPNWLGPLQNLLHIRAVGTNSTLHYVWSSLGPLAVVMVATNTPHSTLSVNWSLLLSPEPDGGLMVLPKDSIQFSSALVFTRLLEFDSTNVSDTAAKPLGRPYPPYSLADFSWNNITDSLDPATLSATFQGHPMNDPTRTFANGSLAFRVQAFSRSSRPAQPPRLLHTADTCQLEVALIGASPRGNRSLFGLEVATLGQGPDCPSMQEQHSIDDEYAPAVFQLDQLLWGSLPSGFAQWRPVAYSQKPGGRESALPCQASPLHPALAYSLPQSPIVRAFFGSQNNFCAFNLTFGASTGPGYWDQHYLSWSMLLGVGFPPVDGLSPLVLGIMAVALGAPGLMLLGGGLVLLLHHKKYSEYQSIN
UniProt Q13227: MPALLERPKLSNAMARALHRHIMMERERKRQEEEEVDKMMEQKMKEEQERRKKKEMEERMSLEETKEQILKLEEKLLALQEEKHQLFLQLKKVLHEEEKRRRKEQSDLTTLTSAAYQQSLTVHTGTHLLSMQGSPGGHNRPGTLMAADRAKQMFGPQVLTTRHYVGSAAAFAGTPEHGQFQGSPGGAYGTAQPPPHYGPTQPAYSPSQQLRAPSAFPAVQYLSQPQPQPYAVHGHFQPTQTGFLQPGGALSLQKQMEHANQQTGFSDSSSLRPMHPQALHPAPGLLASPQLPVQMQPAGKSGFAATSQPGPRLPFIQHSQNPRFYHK
UniProt Q15743: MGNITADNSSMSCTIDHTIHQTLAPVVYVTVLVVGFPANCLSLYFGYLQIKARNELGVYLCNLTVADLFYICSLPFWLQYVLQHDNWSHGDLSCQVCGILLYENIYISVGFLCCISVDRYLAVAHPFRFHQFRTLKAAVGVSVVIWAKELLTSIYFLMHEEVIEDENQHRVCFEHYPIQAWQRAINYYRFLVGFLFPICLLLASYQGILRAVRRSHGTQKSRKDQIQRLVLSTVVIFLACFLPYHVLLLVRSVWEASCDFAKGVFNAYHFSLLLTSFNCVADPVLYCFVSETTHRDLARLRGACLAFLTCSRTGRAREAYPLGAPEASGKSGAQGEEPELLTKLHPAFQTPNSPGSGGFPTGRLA

Assays:
Experiment in all cases: log2 fold change, soluble protein after heating vs DMSO (PISA); higher = thermal stabilisation; K562 cells, 10 uM, 30 min; active = over 0.2 and 3.5 SD of the protein, either way, in both replicates (recomputed)
[1] = compound: NC(=O)Nc1cc(-c2cccc(F)c2)sc1C(=O)N[C@H]1CCCNC1
Method in brief: (§1)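 Thermal stability values are relative to control samples and come from duplicates. They are expressed as log2 fold changes. For measurement, K562 cells (2×10^6 cells/mL) received 10 μM compound for 30 min, and aliquots were heated for 3 min over 48°C-58°C, pooled, and extracted at 4°C in PBS with 0.5% NP-40. Soluble protein, the supernatant after 21,000xg for 90 min, was quantified by TMTpro 16plex LC-MS/MS with equalised channel sums.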

[2] = compound: NC(=O)c1cnc(N[C@@H]2CCCC[C@@H]2N)nc1Nc1cccc(-n2nccn2)c1
Method in brief: as §1

[3] = compound: NC1(c2ccc(-c3nc4ccn5c(=O)[nH]nc5c4cc3-c3ccccc3)cc2)CCC1
Method in brief: as §1

[4] = compound: NCC(=O)Nc1ccc(-n2nc(C(F)(F)F)cc2-c2ccc3c(ccc4ccccc43)c2)cc1
Method in brief: as §1

entinostat = compound: Nc1ccccc1NC(=O)c1ccc(CNC(=O)OCc2cccnc2)cc1 [entinostat]
Method in brief: as §1

vorinostat = compound: O=C(CCCCCCC(=O)Nc1ccccc1)NO [vorinostat]
Method in brief: as §1

silmitasertib = compound: O=C(O)c1ccc2c(c1)nc(Nc1cccc(Cl)c1)c1ccncc12 [silmitasertib]
Method in brief: as §1

[5] = compound: O=C1NC(=O)C(c2cnc3ccccn23)=C1c1cn2c3c(cc(F)cc13)CN(C(=O)N1CCCCC1)CC2
Method in brief: as §1

citarinostat = compound: O=C(CCCCCCNC(=O)c1cnc(N(c2ccccc2)c2ccccc2Cl)nc1)NO [citarinostat]
Method in brief: as §1

[6] = compound: c1cc(OCCN2CCCCC2)cc(-c2n[nH]c3ccc(-c4nnc[nH]4)cc23)c1
Method in brief: as §1

entospletinib = compound: c1cn2cc(-c3ccc4cn[nH]c4c3)nc(Nc3ccc(N4CCOCC4)cc3)c2n1 [entospletinib]
Method in brief: as §1

Measured: log2 fold change

GOPC (UniProt Q9HD26)
inactive: [1] -0.055 | [2] -0.011 | [3] 0.15 | [4] -0.002 | entinostat -0.092 | vorinostat -0.038 | silmitasertib 0.029 | [5] 0.265

GON7 (UniProt Q9BXV9)
inactive: [1] -0.002 | [2] 0.095 | [3] -0.038 | [4] 0.008 | entinostat 0.08 | vorinostat -0.112 | citarinostat -0.006 | silmitasertib -0.034 | [5] 0.007 | [6] -0.014 | entospletinib 0.015

GOLGA7B (UniProt Q2TAP0)
inactive: [1] -0.04 | [2] 0.064 | [3] -0.056 | [4] -0.014 | entinostat -0.069 | citarinostat -0.089 | silmitasertib 0.062 | [6] 0.658 | entospletinib -0.004

GLMP (UniProt Q8WWB7)
inactive: [1] -0.047 | [2] 0.024 | [3] 0.017 | [4] -0.113 | entinostat -0.044 | citarinostat -0.109 | silmitasertib 0.168 | [5] -0.033 | [6] -0.294 | entospletinib 0.008

GPS2 (UniProt Q13227)
inactive: [1] 0.041 | [3] 0.079 | [4] -0.106 | entinostat -0.015 | citarinostat -0.023 | silmitasertib 0.031 | [5] -0.005 | [6] -0.092

GPR68 (UniProt Q15743)
inactive: [2] -0.044
